Assay results: PMC4646279
Results are given in words; binding and its absence hold for the method and conditions named. Binding seen in cells or lysates may run through a third protein. Some entries that bind do so weakly or less than the wild type. For some assays here: Where a sequence is shown, tags or fusion partners need not be part of it.

The chains behind the UniProt entries cited, without tags or fusion partners. Residues count along the entry.
UniProt P07384: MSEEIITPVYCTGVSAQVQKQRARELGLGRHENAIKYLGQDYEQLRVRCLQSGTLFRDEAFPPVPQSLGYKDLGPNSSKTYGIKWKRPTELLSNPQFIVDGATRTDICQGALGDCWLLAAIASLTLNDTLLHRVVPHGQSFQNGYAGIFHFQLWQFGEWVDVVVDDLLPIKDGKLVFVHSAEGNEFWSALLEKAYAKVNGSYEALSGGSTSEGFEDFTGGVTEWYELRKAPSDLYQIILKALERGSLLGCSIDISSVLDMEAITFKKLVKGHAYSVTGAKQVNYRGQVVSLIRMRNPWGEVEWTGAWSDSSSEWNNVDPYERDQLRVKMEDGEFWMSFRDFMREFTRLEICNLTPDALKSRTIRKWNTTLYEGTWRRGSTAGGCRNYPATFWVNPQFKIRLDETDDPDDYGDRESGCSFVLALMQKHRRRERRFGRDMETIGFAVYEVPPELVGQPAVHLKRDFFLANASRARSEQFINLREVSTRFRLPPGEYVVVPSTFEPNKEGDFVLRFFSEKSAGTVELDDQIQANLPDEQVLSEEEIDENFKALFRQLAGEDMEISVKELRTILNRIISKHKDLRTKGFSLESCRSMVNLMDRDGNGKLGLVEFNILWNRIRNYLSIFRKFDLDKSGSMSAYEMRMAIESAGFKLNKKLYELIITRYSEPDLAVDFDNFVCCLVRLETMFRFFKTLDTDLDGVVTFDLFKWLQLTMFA
UniProt P17655, residues 20-700: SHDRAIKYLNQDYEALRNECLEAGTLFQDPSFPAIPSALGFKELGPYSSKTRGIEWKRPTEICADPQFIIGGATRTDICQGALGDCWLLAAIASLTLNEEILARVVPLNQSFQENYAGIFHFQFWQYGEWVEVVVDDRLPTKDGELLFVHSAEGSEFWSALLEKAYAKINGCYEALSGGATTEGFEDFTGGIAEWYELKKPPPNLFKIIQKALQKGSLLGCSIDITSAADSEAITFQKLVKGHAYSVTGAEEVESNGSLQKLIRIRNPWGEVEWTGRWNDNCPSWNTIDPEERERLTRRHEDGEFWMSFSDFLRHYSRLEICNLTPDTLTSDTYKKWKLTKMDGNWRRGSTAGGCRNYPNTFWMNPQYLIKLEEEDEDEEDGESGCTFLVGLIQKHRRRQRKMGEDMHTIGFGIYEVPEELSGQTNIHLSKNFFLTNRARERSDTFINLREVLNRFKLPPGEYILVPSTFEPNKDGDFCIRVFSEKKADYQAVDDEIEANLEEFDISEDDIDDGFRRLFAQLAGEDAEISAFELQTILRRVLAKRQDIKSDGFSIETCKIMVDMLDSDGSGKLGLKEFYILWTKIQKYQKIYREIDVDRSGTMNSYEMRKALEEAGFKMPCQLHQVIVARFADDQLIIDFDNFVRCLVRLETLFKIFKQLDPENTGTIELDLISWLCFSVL

What was measured:
FLAG-ArgRSΔN63 (human) = target: T1, FLAG-ArgRSΔN63 (human) (UniProt P54136); test: co-IP; 293T extracts overexpressing FLAG-tagged full-length or truncated ArgRS, p43 or GlnRS; IP with FLAG antibody, Western blot with antibodies against MSC components
T1 sequence: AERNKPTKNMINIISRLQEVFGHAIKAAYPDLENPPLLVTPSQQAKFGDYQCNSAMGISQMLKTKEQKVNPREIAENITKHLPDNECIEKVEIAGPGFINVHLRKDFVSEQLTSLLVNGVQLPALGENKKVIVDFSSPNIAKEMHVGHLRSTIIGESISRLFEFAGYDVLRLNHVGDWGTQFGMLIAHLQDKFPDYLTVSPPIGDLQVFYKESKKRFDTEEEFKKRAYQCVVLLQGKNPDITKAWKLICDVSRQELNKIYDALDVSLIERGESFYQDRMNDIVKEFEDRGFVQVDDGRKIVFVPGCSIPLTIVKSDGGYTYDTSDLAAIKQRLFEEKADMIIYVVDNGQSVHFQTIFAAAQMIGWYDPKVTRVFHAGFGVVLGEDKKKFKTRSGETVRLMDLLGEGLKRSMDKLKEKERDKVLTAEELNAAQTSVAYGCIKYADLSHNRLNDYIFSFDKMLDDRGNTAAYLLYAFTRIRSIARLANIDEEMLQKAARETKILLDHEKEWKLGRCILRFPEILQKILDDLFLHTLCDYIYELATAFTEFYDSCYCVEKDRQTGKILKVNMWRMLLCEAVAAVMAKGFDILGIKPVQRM

FLAG-p43 (human) = target: T2, FLAG-p43 (human) (UniProt Q12904); test: co-IP; MSC purification: 293T transfected with FLAG-ArgRS or FLAG-p43, lysate on anti-FLAG M2 affinity gel 2 h at 4 °C, washed with PBS four times, eluted with 3xFLAG peptides; Coomassie staining and Western blots
T2 sequence: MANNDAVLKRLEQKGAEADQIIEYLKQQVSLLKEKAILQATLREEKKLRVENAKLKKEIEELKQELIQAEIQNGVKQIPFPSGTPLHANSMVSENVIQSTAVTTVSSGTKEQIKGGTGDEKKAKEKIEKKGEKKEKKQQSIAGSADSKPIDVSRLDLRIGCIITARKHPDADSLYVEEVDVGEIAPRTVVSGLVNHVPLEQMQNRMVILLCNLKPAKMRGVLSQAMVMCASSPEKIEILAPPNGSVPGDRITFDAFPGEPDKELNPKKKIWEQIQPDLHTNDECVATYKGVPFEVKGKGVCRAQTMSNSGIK

FLAG-calpain 1 (human) = FLAG-calpain 1 (human) (UniProt P07384); test: co-IP; FLAG-calpain 2 or FLAG-calpain 1 overexpressed in 293T; IP with anti-FLAG antibody, Western blot with antibodies against endogenous MSC components; mouse IgG as negative control
FLAG-calpain 2 (human) [1] = target: FLAG-calpain 2 (human) (UniProt P17655); test: as above
FLAG-calpain 2 (human) [2] = target: FLAG-calpain 2 (human) (UniProt P17655); test: co-IP; data not shown; FLAG-calpain 2 overexpressed in 293T, co-immunoprecipitation
[3] = target: T3, p43-N106 with C-terminal FLAG tag (human) (UniProt Q12904); test: co-IP; 293T extracts overexpressing FLAG-tagged full-length or truncated ArgRS, p43 or GlnRS; IP with FLAG antibody, Western blot with antibodies against MSC components
T3 sequence: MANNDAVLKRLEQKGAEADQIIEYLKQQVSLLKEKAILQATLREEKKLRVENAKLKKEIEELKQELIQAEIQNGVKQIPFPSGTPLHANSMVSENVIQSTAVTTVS

[4] = target: T4, p43ΔN106 with C-terminal FLAG tag (human) (UniProt Q12904); test: as above
T4 sequence: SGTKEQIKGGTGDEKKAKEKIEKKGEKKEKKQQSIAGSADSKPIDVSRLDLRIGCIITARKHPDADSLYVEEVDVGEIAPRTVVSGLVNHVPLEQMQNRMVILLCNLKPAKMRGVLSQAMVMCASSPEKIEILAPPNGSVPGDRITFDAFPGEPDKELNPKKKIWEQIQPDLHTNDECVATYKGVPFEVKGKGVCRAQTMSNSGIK

Binder	binding (FLAG-ArgRSΔN63 (human))	binding (FLAG-p43 (human))	binding (FLAG-calpain 1 (human))	binding (FLAG-calpain 2 (human) [1])	binding (FLAG-calpain 2 (human) [2])	binding [3]	binding [4]
glutaminyl-tRNA synthetase (GlnRS), endogenous (enzyme, UniProt P47897 1-775) MAALDSLSLFTSLGLSEQKARETLKNSALSAQLREAATQAQQTLGSTIDKATGILLYGLASRLRDTRRLSFLVSYIASKKIHTEPQLSAALEYVRSHPLDPIDTVDFERECGVGVIVTPEQIEEAVEAAINRHRPQLLVERYHFNMGLLMGEARAVLKWADGKMIKNEVDMQVLHLLGPKLEADLEKKFKVAKARLEETDRRTAKDVVENGETADQTLSLMEQLRGEALKFHKPGENYKTPGYVVTPHTMNLLKQHLEITGGQVRTRFPPEPNGILHIGHAKAINFNFGYAKANNGICFLRFDDTNPEKEEAKFFTAICDMVAWLGYTPYKVTYASDYFDQLYAWAVELIRRGLAYVCHQRGEELKGHNTLPSPWRDRPMEESLLLFEAMRKGKFSEGEATLRMKLVMEDGKMDPVAYRVKYTPHHRTGDKWCIYPTYDYTHCLCDSIEHITHSLCTKEFQARRSSYFWLCNALDVYCPVQWEYGRLNLHYAVVSKRKILQLVATGAVRDWDDPRLFTLTALRRRGFPPEAINNFCARVGVTVAQTTMEPHLLEACVRDVLNDTAPRAMAVLESLRVIITNFPAAKSLDIQVPNFPADETKGFHQVPFAPIVFIERTDFKEEPEPGFKRLAWGQPVGLRHTGYVIELQHVVKGPSGCVESLEVTCRRADAGEKPKAFIHWVSQPLMCEVRLYERLFQHKNPEDPTEVPGGFLSDLNLASLHVVDAALVDCSVALAKPFDKFQFERLGYFSVDPDSHQGKLVFNRTVTLKEDPGKV	no binding	binds	binds weakly	binds	–	–	–
arginyl-tRNA synthetase (ArgRS), endogenous (enzyme, UniProt P54136 1-660) MDVLVSECSARLLQQEEEIKSLTAEIDRLKNCGCLGASPNLEQLQEENLKLKYRLNILRKSLQAERNKPTKNMINIISRLQEVFGHAIKAAYPDLENPPLLVTPSQQAKFGDYQCNSAMGISQMLKTKEQKVNPREIAENITKHLPDNECIEKVEIAGPGFINVHLRKDFVSEQLTSLLVNGVQLPALGENKKVIVDFSSPNIAKEMHVGHLRSTIIGESISRLFEFAGYDVLRLNHVGDWGTQFGMLIAHLQDKFPDYLTVSPPIGDLQVFYKESKKRFDTEEEFKKRAYQCVVLLQGKNPDITKAWKLICDVSRQELNKIYDALDVSLIERGESFYQDRMNDIVKEFEDRGFVQVDDGRKIVFVPGCSIPLTIVKSDGGYTYDTSDLAAIKQRLFEEKADMIIYVVDNGQSVHFQTIFAAAQMIGWYDPKVTRVFHAGFGVVLGEDKKKFKTRSGETVRLMDLLGEGLKRSMDKLKEKERDKVLTAEELNAAQTSVAYGCIKYADLSHNRLNDYIFSFDKMLDDRGNTAAYLLYAFTRIRSIARLANIDEEMLQKAARETKILLDHEKEWKLGRCILRFPEILQKILDDLFLHTLCDYIYELATAFTEFYDSCYCVEKDRQTGKILKVNMWRMLLCEAVAAVMAKGFDILGIKPVQRM	–	–	no binding	–	binds	binds	no binding
